Laboratory results from patent EP0673924A1, “PROPIONIC ACID DERIVATIVE” (TEIKOKU CHEMICAL INDUSTRY CO., LTD., priority 1992, dated 1994).
At least one structure is not confirmed: it was looked up by name or label, or the drawing left a doubt.

Target: trypsin
Experiment: Trypsin inhibition (hydrolysis of benzoyl-DL-arginine-p-nitroanilide, absorption at 410nm)
Assay type: biochemical
Conditions: values in the example texts; 0.1M boric acid buffer pH8.0 with 5mM calcium chloride, 10 minutes at 25°C

SMILES: CC(C(=O)N1CCCCC1)c1ccc(OC(=O)c2ccc(NC(=N)N)cc2)cc1.CS(=O)(=O)O (stereo not shown) [Example 88, 4-guanidino-benzoic acid 4-[1-(piperidinocarbonyl)ethyl]phenylester · methane sulfonate]
- enzyme inhibiting activity IC50 of trypsin: 4.4 × 10-7 mol concentration
